Some of the results follow.
compound: c1cn2cc(-c3ccc4cn[nH]c4c3)nc(Nc3ccc(N4CCOCC4)cc3)c2n1 [entospletinib]; experiment: log2 fold change, soluble protein after heating vs DMSO (PISA); higher = thermal stabilisation; K562 cells, 10 uM, 30 min; active = over 0.2 and 3.5 SD of the protein, either way, in both replicates (recomputed)
Outline: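 K562 cells at 2×10^6 cells/mL were treated for 30 min with 10 μM compound, and aliquots were heated for 3 min over 48°C-58°C before pooling. Extraction used PBS with 0.5% NP-40 at 4°C, and soluble protein was the supernatant after 21,000xg for 90 min, measured by TMTpro 16plex LC-MS/MS with channel sums equalised. Thermal stability values, relative to control samples and from duplicates, are log2 fold changes.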

Chains of the proteins cited; added tags and fusions are not shown. Lines headed by an entry give the natural chain unless they say otherwise; changes in a name come on top.
UniProt Q96C36: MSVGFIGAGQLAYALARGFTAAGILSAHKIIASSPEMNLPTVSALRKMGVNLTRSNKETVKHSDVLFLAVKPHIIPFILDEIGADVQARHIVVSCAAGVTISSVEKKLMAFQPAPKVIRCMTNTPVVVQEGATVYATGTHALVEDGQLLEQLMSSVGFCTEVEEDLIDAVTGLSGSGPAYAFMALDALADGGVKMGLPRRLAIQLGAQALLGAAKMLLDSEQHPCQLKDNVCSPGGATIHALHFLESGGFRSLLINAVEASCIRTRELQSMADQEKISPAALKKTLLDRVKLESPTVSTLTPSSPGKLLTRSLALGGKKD
UniProt O00487, whole entry, looked up: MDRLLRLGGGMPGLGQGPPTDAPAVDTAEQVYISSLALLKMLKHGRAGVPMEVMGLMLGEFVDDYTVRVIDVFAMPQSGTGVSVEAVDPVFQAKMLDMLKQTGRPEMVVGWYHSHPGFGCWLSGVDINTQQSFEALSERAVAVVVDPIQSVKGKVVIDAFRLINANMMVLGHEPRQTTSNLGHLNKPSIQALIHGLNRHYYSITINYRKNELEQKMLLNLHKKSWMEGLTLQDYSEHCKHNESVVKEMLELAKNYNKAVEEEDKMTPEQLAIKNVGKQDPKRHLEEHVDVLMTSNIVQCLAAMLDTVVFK
UniProt P18031: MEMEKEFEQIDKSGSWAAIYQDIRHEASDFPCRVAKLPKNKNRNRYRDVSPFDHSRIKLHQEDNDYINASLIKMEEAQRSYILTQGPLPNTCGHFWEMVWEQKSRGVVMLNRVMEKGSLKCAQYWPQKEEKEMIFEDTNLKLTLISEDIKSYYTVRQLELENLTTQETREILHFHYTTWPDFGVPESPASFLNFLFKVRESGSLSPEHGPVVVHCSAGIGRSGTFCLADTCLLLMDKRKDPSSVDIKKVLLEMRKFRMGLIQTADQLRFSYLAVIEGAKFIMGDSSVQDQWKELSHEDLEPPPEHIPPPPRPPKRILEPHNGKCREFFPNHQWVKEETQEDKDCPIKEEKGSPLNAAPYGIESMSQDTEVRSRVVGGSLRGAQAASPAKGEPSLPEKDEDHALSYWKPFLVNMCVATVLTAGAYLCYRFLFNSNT
UniProt P28066: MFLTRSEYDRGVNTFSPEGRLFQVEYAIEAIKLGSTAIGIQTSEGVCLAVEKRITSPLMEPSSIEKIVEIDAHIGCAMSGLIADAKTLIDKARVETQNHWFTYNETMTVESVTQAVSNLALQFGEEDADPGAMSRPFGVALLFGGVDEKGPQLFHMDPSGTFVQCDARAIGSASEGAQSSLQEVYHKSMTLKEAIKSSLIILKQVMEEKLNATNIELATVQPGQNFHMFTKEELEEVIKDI
UniProt Q9H939: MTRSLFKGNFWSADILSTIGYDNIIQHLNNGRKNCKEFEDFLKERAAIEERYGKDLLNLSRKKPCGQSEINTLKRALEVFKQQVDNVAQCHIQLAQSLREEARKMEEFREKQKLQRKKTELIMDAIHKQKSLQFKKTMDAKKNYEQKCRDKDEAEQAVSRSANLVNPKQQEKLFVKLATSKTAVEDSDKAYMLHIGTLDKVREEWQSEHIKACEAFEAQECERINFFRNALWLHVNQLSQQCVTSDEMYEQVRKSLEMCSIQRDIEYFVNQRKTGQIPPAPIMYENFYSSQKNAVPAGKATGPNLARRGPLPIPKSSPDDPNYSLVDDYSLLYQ
UniProt Q9NRG1: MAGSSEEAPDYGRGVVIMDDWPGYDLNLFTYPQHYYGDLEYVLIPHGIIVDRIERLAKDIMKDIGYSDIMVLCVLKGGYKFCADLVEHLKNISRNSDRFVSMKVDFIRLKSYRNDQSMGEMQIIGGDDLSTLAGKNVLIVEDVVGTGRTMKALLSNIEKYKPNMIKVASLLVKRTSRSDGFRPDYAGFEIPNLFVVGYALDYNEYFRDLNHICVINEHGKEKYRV
UniProt Q8N0Z8: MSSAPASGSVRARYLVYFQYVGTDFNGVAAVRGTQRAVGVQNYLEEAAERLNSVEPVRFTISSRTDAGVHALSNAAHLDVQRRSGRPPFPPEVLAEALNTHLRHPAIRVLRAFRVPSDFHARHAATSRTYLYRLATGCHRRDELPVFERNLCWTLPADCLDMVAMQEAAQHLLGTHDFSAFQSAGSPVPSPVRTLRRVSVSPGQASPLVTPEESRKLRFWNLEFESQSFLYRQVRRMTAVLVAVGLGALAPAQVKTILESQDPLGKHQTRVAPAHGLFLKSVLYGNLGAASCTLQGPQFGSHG
UniProt P40306: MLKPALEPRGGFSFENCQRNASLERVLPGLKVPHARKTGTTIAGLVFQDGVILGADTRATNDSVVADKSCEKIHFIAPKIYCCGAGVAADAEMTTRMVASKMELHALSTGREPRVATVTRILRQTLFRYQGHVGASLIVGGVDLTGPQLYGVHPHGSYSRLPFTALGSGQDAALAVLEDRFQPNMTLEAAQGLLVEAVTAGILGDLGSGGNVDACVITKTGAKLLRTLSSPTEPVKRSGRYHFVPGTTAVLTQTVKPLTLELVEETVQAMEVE
UniProt Q03393: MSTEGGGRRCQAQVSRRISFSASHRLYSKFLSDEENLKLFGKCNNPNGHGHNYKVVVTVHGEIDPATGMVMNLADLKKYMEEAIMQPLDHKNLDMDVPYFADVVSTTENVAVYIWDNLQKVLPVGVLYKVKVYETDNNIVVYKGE
UniProt Q6ZRP7: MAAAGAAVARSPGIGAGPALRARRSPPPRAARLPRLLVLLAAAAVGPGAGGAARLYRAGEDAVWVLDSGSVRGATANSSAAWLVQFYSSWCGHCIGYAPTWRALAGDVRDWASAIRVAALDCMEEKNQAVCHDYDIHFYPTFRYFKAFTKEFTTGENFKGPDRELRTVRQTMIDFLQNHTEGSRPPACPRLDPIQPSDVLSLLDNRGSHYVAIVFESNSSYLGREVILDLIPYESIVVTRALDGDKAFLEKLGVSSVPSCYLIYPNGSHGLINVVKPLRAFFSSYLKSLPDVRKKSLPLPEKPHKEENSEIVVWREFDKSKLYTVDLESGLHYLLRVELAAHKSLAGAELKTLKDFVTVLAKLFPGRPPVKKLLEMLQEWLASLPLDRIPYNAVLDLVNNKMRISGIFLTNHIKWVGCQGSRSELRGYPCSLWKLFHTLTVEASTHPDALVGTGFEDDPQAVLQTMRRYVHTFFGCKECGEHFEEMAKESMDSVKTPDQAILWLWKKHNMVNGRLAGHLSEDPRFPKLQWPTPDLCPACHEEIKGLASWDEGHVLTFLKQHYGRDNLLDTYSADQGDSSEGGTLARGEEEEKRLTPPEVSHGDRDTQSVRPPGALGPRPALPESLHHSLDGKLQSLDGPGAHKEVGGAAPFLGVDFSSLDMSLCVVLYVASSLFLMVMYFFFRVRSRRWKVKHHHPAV
UniProt Q9BVG9: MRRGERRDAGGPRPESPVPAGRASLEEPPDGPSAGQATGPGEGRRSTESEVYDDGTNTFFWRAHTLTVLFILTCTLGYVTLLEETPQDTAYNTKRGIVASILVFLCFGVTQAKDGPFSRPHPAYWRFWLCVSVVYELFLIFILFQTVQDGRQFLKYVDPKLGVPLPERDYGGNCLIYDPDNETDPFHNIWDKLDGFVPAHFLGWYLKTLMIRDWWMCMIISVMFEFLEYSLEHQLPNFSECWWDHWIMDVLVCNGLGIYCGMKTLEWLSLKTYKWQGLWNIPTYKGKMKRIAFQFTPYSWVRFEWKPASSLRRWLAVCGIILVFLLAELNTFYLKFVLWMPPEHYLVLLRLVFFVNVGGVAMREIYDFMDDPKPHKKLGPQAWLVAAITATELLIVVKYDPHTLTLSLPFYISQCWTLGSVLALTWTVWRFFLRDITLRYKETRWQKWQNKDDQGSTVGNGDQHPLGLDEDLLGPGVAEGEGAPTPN
UniProt O75475: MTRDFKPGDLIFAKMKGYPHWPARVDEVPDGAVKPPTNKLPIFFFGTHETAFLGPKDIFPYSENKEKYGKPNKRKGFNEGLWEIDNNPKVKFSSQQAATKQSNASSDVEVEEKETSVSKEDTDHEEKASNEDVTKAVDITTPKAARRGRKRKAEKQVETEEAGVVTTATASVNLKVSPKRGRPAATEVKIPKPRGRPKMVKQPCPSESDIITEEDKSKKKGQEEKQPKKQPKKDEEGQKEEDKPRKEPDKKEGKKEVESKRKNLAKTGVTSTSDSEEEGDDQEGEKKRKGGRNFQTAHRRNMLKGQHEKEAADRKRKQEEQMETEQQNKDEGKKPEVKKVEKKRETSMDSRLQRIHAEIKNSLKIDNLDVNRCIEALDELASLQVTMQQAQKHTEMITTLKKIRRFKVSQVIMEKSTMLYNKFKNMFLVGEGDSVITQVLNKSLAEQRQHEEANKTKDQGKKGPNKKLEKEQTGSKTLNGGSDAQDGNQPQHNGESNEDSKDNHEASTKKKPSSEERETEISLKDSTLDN
UniProt Q9NR77: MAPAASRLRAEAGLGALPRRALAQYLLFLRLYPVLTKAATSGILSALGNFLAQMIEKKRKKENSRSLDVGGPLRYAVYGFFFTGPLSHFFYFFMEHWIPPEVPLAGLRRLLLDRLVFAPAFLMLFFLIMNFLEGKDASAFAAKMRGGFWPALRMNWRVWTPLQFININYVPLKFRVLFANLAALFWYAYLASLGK
UniProt P18433: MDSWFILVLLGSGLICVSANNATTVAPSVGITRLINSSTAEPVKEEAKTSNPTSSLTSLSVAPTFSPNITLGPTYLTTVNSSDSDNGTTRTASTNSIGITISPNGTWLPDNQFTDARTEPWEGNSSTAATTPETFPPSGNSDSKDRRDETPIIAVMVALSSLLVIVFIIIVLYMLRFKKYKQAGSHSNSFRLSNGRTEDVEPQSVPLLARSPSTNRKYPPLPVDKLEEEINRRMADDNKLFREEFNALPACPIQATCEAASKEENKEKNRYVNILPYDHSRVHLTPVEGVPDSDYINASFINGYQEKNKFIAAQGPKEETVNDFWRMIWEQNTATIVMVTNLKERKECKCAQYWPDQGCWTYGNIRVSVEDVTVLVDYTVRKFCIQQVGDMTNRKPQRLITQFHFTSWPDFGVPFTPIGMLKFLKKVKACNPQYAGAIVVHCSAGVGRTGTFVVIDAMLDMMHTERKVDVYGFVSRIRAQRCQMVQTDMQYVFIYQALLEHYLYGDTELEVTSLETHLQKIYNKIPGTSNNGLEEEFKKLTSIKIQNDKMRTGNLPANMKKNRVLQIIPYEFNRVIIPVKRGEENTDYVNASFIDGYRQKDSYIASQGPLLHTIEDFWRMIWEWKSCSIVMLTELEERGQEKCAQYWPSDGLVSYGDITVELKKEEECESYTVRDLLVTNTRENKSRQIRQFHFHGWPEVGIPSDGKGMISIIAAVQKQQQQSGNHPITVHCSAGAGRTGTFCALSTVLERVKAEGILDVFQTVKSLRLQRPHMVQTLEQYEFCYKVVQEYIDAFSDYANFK
UniProt Q9BRP8: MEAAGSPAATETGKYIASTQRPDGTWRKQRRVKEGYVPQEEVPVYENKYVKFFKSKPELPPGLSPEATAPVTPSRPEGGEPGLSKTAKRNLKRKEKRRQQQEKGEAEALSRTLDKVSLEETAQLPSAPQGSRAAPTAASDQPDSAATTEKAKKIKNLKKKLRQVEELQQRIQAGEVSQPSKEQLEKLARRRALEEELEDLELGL
UniProt Q5JS54: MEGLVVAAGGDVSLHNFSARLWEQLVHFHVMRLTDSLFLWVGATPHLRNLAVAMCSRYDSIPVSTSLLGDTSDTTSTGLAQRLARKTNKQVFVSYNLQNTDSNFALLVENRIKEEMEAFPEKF
UniProt P07602: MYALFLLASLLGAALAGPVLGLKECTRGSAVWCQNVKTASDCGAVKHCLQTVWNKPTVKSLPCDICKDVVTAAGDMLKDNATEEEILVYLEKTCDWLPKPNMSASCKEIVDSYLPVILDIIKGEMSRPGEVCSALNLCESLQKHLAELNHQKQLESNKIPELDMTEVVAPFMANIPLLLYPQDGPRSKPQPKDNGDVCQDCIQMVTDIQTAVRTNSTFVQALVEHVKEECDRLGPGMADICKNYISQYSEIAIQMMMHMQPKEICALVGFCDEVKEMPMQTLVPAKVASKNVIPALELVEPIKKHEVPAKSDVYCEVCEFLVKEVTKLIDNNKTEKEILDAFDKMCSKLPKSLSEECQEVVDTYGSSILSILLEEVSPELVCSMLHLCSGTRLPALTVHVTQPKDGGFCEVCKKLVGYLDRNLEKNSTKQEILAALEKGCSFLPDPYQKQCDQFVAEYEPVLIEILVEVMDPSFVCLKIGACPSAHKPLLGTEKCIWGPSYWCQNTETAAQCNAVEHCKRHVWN
UniProt O75832: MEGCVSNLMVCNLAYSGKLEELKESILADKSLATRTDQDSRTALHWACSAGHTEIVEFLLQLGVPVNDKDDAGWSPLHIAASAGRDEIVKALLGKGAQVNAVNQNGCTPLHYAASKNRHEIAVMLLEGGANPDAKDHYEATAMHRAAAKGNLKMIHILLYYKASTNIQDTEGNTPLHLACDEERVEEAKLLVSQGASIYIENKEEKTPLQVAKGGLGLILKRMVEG

log2 fold change, inactive:
PYCR2 (UniProt Q96C36) 0.069
PSIP1 (UniProt V9GYT7) -0.089
PUS10 (UniProt Q3MIT2) -0.029
PSMD14 (UniProt O00487) -0.001
PTPN2 (UniProt P17706) -0.004
PTPN1 (UniProt P18031) -0.008
PSMA5 (UniProt P28066) 0.017
PSTPIP2 (UniProt Q9H939) 0.032
PRTFDC1 (UniProt Q9NRG1) -0.01
PTCD3 (UniProt Q96EY7) 0.082
PUSL1 (UniProt Q8N0Z8) -0.012
PSMD4 (UniProt P55036) 0.027
PSMB10 (UniProt P40306) -0.004
PTS (UniProt Q03393) 0.008
QSOX2 (UniProt Q6ZRP7) -0.072
PTDSS2 (UniProt Q9BVG9) -0.002
PSIP1 (UniProt O75475) 0.023
PXMP2 (UniProt Q9NR77) -0.018
PTPRA (UniProt P18433) -0.014
PYM1 (UniProt Q9BRP8) 0.018
PSMG4 isoform 2 (UniProt Q5JS54) 0.005
PSAP isoform 3 (UniProt P07602) -0.002
PSMD10 (UniProt O75832) 0

Four consecutive records already listed:
log2 fold change, inactive:
PTPRA (UniProt P18433) -0.014
PYM1 (UniProt Q9BRP8) 0.018
PSMG4 isoform 2 (UniProt Q5JS54) 0.005
PSAP isoform 3 (UniProt P07602) -0.002

From the supplement of paper PMC10849652
